Test results taken from paper PMC8028314, “Sae2 and Rif2 regulate MRX endonuclease activity at DNA double-strand breaks in opposite manners” (Cell Reports, 2021).
These are yes or no findings as the source states them, for the method shown. Binding seen in cells or lysates may run through a third protein. Some entries that bind do so weakly or less than the wild type. Sequences can lack the tags named with a protein.

T1: Rif2-Myc (S. cerevisiae) (UniProt Q06208)
T1 sequence: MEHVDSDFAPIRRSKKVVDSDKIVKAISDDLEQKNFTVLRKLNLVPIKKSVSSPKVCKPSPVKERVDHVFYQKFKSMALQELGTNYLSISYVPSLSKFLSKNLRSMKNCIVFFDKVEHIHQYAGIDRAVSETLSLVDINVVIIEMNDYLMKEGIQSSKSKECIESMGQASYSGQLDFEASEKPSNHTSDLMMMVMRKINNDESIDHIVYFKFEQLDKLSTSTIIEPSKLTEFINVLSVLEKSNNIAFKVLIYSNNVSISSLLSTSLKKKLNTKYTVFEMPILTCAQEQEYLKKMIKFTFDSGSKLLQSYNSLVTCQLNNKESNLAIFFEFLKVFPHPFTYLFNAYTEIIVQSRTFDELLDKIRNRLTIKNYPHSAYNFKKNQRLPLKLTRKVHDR


Target: T1, Rif2-Myc (S. cerevisiae)
Assay: co-IP; protein extracts of exponentially growing xrs2Δ S. cerevisiae cells; IP with anti-Myc antibody, western blots with anti-HA and anti-Myc; lysis buffer 50 mM HEPES pH 7.5, 140 mM NaCl, 1 mM EDTA, 10% glycerol, 0.5% NP40

Binder | binding
Rad50-HA (protein, UniProt P12753 1-1312) MSAIYKLSIQGIRSFDSNDRETIEFGKPLTLIVGMNGSGKTTIIECLKYATTGDLPPNSKGGVFIHDPKITGEKDIRAQVKLAFTSANGLNMIVTRNIQLLMKKTTTTFKTLEGQLVAINNSGDRSTLSTRSLELDAQVPLYLGVPKAILEYVIFCHQEDSLWPLSEPSNLKKKFDEIFQAMKFTKALDNLKSIKKDMSVDIKLLKQSVEHLKLDKDRSKAMKLNIHQLQTKIDQYNEEVSEIESQLNEITEKSDKLFKSNQDFQKILSKVENLKNTKLSISDQVKRLSNSIDILDLSKPDLQNLLANFSKVLMDKNNQLRDLETDISSLKDRQSSLQSLSNSLIRRQGELEAGKETYEKNRNHLSSLKEAFQHKFQGLSNIENSDMAQVNHEMSQFKAFISQDLTDTIDQFAKDIQLKETNLSDLIKSITVDSQNLEYNKKDRSKLIHDSEELAEKLKSFKSLSTQDSLNHELENLKTYKEKLQSWESENIIPKLNQKIEEKNNEMIILENQIEKFQDRIMKTNQQADLYAKLGLIKKSINTKLDELQKITEKLQNDSRIRQVFPLTQEFQRADLEMDFQKLFINMQKNIAINNKKMHELDRRYTNALYNLNTIEKDLQDNQKSKEKVIQLLSENLPEDCTIDEYNDVLEETELSYKTALENLKMHQTTLEFNRKALEIAERDSCCYLCSRKFENESFKSKLLQELKTKTDANFEKTLKDTVQNEKEYLHSLRLLEKHIITLNSINEKIDNSQKCLEKAKEETKTSKSKLDELEVDSTKLKDEKELAESEIRPLIEKFTYLEKELKDLENSSKTISEELSIYNTSEDGIQTVDELRDQQRKMNDSLRELRKTISDLQMEKDEKVRENSRMINLIKEKELTVSEIESSLTQKQNIDDSIRSKRENINDIDSRVKELEARIISLKNKKDEAQSVLDKVKNERDIQVRNKQKTVADINRLIDRFQTIYNEVVDFEAKGFDELQTTIKELELNKAQMLELKEQLDLKSNEVNEEKRKLADSNNEEKNLKQNLELIELKSQLQHIESEISRLDVQNAEAERDKYQEESLRLRTRFEKLSSENAGKLGEMKQLQNQIDSLTHQLRTDYKDIEKNYHKEWVELQTRSFVTDDIDVYSKALDSAIMKYHGLKMQDINRIIDELWKRTYSGTDIDTIKIRSDEVSSTVKGKSYNYRVVMYKQDVELDMRGRCSAGQKVLASIIIRLALSETFGANCGVIALDEPTTNLDEENIESLAKSLHNIINMRRHQKNFQLIVITHDEKFLGHMNAAAFTDHFFKVKRDDRQKSQIEWVDINRVTY | binds
Rad50^K81I-hemagglutinin (HA) (protein, UniProt P12753 1-1312) MSAIYKLSIQGIRSFDSNDRETIEFGKPLTLIVGMNGSGKTTIIECLKYATTGDLPPNSKGGVFIHDPKITGEKDIRAQVILAFTSANGLNMIVTRNIQLLMKKTTTTFKTLEGQLVAINNSGDRSTLSTRSLELDAQVPLYLGVPKAILEYVIFCHQEDSLWPLSEPSNLKKKFDEIFQAMKFTKALDNLKSIKKDMSVDIKLLKQSVEHLKLDKDRSKAMKLNIHQLQTKIDQYNEEVSEIESQLNEITEKSDKLFKSNQDFQKILSKVENLKNTKLSISDQVKRLSNSIDILDLSKPDLQNLLANFSKVLMDKNNQLRDLETDISSLKDRQSSLQSLSNSLIRRQGELEAGKETYEKNRNHLSSLKEAFQHKFQGLSNIENSDMAQVNHEMSQFKAFISQDLTDTIDQFAKDIQLKETNLSDLIKSITVDSQNLEYNKKDRSKLIHDSEELAEKLKSFKSLSTQDSLNHELENLKTYKEKLQSWESENIIPKLNQKIEEKNNEMIILENQIEKFQDRIMKTNQQADLYAKLGLIKKSINTKLDELQKITEKLQNDSRIRQVFPLTQEFQRADLEMDFQKLFINMQKNIAINNKKMHELDRRYTNALYNLNTIEKDLQDNQKSKEKVIQLLSENLPEDCTIDEYNDVLEETELSYKTALENLKMHQTTLEFNRKALEIAERDSCCYLCSRKFENESFKSKLLQELKTKTDANFEKTLKDTVQNEKEYLHSLRLLEKHIITLNSINEKIDNSQKCLEKAKEETKTSKSKLDELEVDSTKLKDEKELAESEIRPLIEKFTYLEKELKDLENSSKTISEELSIYNTSEDGIQTVDELRDQQRKMNDSLRELRKTISDLQMEKDEKVRENSRMINLIKEKELTVSEIESSLTQKQNIDDSIRSKRENINDIDSRVKELEARIISLKNKKDEAQSVLDKVKNERDIQVRNKQKTVADINRLIDRFQTIYNEVVDFEAKGFDELQTTIKELELNKAQMLELKEQLDLKSNEVNEEKRKLADSNNEEKNLKQNLELIELKSQLQHIESEISRLDVQNAEAERDKYQEESLRLRTRFEKLSSENAGKLGEMKQLQNQIDSLTHQLRTDYKDIEKNYHKEWVELQTRSFVTDDIDVYSKALDSAIMKYHGLKMQDINRIIDELWKRTYSGTDIDTIKIRSDEVSSTVKGKSYNYRVVMYKQDVELDMRGRCSAGQKVLASIIIRLALSETFGANCGVIALDEPTTNLDEENIESLAKSLHNIINMRRHQKNFQLIVITHDEKFLGHMNAAAFTDHFFKVKRDDRQKSQIEWVDINRVTY | binds
